According to PMC9939006:
These are yes or no findings as the source states them, for the method shown. In cells and extracts the contact can be indirect. For some assays here: Binding calls can cover weak binding; strength is not graded here.

The chains behind the UniProt entries cited, without tags or fusion partners.
UniProt Q6AI39: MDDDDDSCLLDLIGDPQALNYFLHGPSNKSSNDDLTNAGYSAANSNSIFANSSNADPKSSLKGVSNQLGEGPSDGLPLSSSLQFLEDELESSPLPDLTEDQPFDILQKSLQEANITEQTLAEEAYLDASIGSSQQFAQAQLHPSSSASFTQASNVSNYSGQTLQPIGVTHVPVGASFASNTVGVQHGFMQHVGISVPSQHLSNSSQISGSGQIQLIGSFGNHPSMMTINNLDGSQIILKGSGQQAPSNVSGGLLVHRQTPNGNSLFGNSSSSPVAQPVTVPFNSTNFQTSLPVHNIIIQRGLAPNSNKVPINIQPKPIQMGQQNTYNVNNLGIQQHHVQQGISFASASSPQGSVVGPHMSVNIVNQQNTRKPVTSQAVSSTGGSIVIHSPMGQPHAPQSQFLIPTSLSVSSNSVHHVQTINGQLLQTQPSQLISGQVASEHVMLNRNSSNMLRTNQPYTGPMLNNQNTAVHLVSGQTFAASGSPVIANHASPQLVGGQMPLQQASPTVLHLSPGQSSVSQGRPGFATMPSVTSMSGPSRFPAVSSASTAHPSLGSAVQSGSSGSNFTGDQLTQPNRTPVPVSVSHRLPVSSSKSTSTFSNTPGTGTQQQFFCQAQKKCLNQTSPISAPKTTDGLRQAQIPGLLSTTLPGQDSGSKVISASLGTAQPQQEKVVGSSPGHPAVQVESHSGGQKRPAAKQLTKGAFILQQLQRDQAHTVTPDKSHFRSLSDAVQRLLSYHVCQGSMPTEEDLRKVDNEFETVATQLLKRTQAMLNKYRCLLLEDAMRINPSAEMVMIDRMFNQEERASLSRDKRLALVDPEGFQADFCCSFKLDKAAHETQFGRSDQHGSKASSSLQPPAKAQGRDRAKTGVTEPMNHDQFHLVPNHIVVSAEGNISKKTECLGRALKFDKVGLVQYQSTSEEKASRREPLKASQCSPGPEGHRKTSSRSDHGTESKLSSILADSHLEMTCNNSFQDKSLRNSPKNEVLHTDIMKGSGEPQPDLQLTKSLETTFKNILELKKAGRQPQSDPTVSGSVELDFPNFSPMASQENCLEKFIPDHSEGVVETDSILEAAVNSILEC

Tests used:
[1] = biological target: i∆HSA (inducible BRG1 with the HSA domain deleted, with C-terminal V5 tag) (human) (UniProt P51532); assay: co-IP; immunoprecipitation (anti-V5, BCL7B, BCL7C, BAF53a, BAF155, GLTSCR1L, BAF45b or IgG) from iBRG1 or i∆HSA cells after 24 h doxycycline; cells crosslinked with 1% formaldehyde, high-salt extraction (420 mM NaCl), nuclease, diluted 1:5 in IP buffer (100 mM NaCl, 0.1% NP-40), Protein G Dynabeads, Western blot
[2] = biological target: B-cell CLL/lymphoma 7 protein family member C (BCL7C) (human (endogenous in SW-13)) (UniProt Q8WUZ0); assay: as above

| Substance | binding [1] | binding [2] |
| --- | --- | --- |
| GLTSCR1L (from UniProt Q6AI39 1-1079) | binds |  |
| i∆HSA (inducible BRG1 with the HSA domain deleted, with C-terminal V5 tag) (from UniProt P51532) (enzyme) |  | no binding |
